In PMC12040169 (PLOS Biology, 2025):
The list shows a part of the results.

Test system: T1, CTL2-GFP (C. trachomatis L2/434/Bu, GFP-expressing)
T1 construct: L2/434/Bu, GFP-expressing
Parameters: species or system HeLa; Intracellular C. trachomatis growth in HeLa cells, bulk GFP fluorescence relative to DMSO
Settings: bulk GFP, single well; 28.5 h, 10 µM; inhibitor

Row | SMILES | % of control remaining [%]
1 | Cc1cc(C)c2c(c1)-c1c(ssc1=S)C(C)(C)N2C(=O)CSc1nnc[nH]1 [CBK263038] | 110.929
2 | COc1ccc2c(=O)c3c(oc2c1)C(=O)N(CCN(C)C)C3c1ccccn1 (stereo not shown) [CBK287781] | 101.113
3 | Cc1[nH]c2ccc(C(=O)N(Cc3ccccc3)C3CC3)cc2c1C [CBK297913] | 101.738
4 | c1ccc2[nH]c(NCCN3CCOCC3)nc2c1 [CBK268791] | 163.907
5 | Cc1ccc(OCc2ccc(Cl)s2)c(Br)c1 [CBK002840] | 109.49
6 | COc1ccc(Cn2nc(NS(=O)(=O)c3cn(C)cn3)c3ccccc32)cc1 [CBK048143] | 118.421
7 | O=C(Nc1cc(N2CCNCC2)ncn1)c1cnc2ccccc2c1 [CBK004209T] | 114.683
8 | O=C(NCCOc1ccc(F)cc1)c1cccs1 [CBK057930] | 118.417
9 | COc1ccc(N(CC(=O)N2CCN(Cc3ccc4c(c3)OCO4)CC2)S(C)(=O)=O)cc1Cl [CBK265258] | 120.061
10 | CCN(CC)c1ccc(NC(=O)c2cc(-c3cccnc3)cnc2NCCN2CCOCC2)cc1 [CBK126566] | 99.4832
11 | C[S+]([O-])CCC(NS(=O)(=O)c1ccccc1)C(=O)O (stereo not shown) [CBK268267] | 103.196
12 | O=C(O)c1cccc(-n2c(S)nnc2-c2cnccn2)c1 [CBK269252] | 121.703
13 | CCN(CC)c1ccc(NC(=O)c2cccc(OC)c2OC)c(C)c1 [CBK097801] | 100
14 | Nc1nc(SCC(=O)NCCCO)nc2sc3c(c12)CCC3 [CBK264952] | 111.383
15 | C=CCn1c(C)c(CN2CCc3nc(C)[nH]c(=O)c3C2)c2ccccc21 [CBK282375] | 125.09
16 | CC(C)Nc1nc2ccccc2nc1SCCOc1ccccc1 [CBK103668] | 89.7517
17 | CC(C)(C)OC(=O)NCc1ccc(-c2cc(NC3CCCCC3)ncn2)cc1 [CBK090898] | 156.754
18 | COc1cc(OC)nc(NC(=O)CN2CCN(c3ccc(F)cc3)CC2)n1 [CBK267259] | 164.391
19 | Cc1nc(CN2CCCN(C(=O)c3cccc(C#N)c3)CC2)cs1 [CBK305363] | 99.4161
20 | COc1cc(/C=C2/SC(=O)NC2=O)cc(I)c1O [CBK100075] | 117.459
21 | COc1ccc(C(NC(=O)[C@H]2CCCN2C(=O)COc2ccccc2)c2ccccc2C)cn1 (stereo partly shown) [CBK076682] | 88.808
22 | O=C(CSc1nnc(C2CC2)[nH]1)Nc1ccc(SC(F)F)cc1 [CBK295302] | 137.779
23 | CCN1C(=O)CC(n2c(C)nc3ccccc32)C1=O (stereo not shown) [CBK287847] | 127.334
24 | CCc1nc2ccc(C(=O)N(C)C(C)C)cn2c1N(C)CCN1CCOCC1 [CBK146436] | 142.696
25 | O=C1CCC(C(=O)N2CCN(S(=O)(=O)c3ccccc3Cl)CC2)N1 (stereo not shown) [CBK304561] | 99.8397
26 | Clc1ccc(CN2CCC(Oc3cncc(OCCN4CCOCC4)n3)C2)cc1 (stereo not shown) [CBK084480] | 109.346
27 | Cc1ccc(N(CC(=O)NN=C2CCCCCCCCCCC2)S(=O)(=O)c2ccccc2)cc1 [CBK262192] | 110.159

Row | SMILES | % of control remaining [%]
28 | O=[N+]([O-])c1ccccc1CS(=O)(=O)Nc1ccc(-c2nnn[nH]2)cc1 [CBK155430] | 87.161
29 | COc1ccc2cc(Cn3nc(C(=O)O)c4ccccc4c3=O)c(Cl)nc2c1 [CBK295354] | 152.547
30 | CN1CCN(c2nc(-c3ccc4c(c3)CCC(=O)N4)cs2)CC1 [CBK304319C] | 114.721
31 | Cc1cc(S(=O)(=O)CC#N)c(C)cc1Cl [CBK018672] | 145.941
32 | CCNC(=O)N1CCN(CCCC(O)c2ccc(F)cc2)CC1 (stereo not shown) [CBK025001C] | 105.139
33 | O=C(C1CCCC1)N1CCC(c2cccc(Cc3ccccc3Cl)n2)CC1 [CBK286507] | 91.4531
34 | COc1ccc(C(C)C)cc1S(=O)(=O)NCCN1CCOCC1 [CBK266538] | 124.57
35 | CCn1cc(-c2cncn2CCn2nc(C)c(Cl)c2C)cn1 [CBK281708] | 116.019
36 | CC(C)Nc1cncc(Sc2ccccc2N)n1 [CBK093726] | 93.3897
37 | CN1CCC(N(CCO)CC2(c3ccc(Cl)cc3)CC2)CC1 [CBK282781] | 95.2511
38 | N/C(CSc1cccc2c1CCCC2)=N\O [CBK006787C] | 142.751
39 | Clc1ccc(-c2nc(C3CCN(CCc4ccccc4)CC3)n3ccccc23)cc1 [CBK035316] | 100
40 | COc1cc2c(cc1/C=C1/S/C(=N\c3ccccc3)N(CCCN3CCOCC3)C1=O)OCO2 [CBK265631] | 100
41 | O=C(NCC1COc2ccccc2O1)c1cc(-c2ccc(Cl)cc2)cnc1N1CCOCC1 (stereo not shown) [CBK076286] | 124.53
42 | c1ccc(C(Oc2nccnc2-c2cccs2)c2ccccc2)cc1 [CBK107061] | 94.5574
43 | CC(=O)c1ccc(N2CCN(Cc3cc(C(C)(C)C)c(O)c(C(C)(C)C)c3)CC2)cc1 [CBK261749] | 103.787
44 | O=C(C1=C(O)C(=O)N(CCCN2CCOCC2)C1c1cccnc1)c1cc2ccccc2o1 (stereo not shown) [CBK266147] | 127.066
45 | c1ccc(SCCN2CCOCC2)cc1 [CBK027679] | 129.005
46 | c1ccc2cc(OCc3ccc(-c4nccnc4-c4nnn[nH]4)cc3)ccc2c1 [CBK050818] | 100
47 | O=C(CC(C(=O)O)c1c[nH]c2ccccc12)c1ccc(Cl)cc1 (stereo not shown) [CBK286620] | 135.19
48 | COc1ccc(/C=C(\C)C(=O)Nc2cc3ccccc3c(N3CCNCC3)n2)cc1OC [CBK038937T] | 103.12
49 | Cc1c(C(C)NC(=O)C2C3CCC(O3)C2C(=O)O)cnn1C (stereo not shown) [CBK286887] | 111.367
50 | CC(=O)Nc1c(C#N)cnn1C [CBK046332] | 110.635
51 | O=C(Nc1ccc2oc(-c3cccnc3)nc2c1)c1ccc(Br)o1 [CBK263436] | 90.5819
52 | O=C(Nc1cccc(-c2nc3ncccc3o2)c1)c1cccnc1Cl [CBK058695] | 124.1
53 | CCOc1ccccc1NC(=O)CC1Sc2ccc(C(F)(F)F)cc2NC1=O (stereo not shown) [CBK263659] | 84.5684
54 | O=C1NC2(CCC(=O)N(Cc3ccccc3)CC2)Oc2ccccc21 (stereo not shown) [CBK284438] | 128.757

Random excerpt: five compounds from above.
Row | SMILES | % of control remaining [%]
39 | Clc1ccc(-c2nc(C3CCN(CCc4ccccc4)CC3)n3ccccc23)cc1 [CBK035316] | 100
41 | O=C(NCC1COc2ccccc2O1)c1cc(-c2ccc(Cl)cc2)cnc1N1CCOCC1 (stereo not shown) [CBK076286] | 124.53
18 | COc1cc(OC)nc(NC(=O)CN2CCN(c3ccc(F)cc3)CC2)n1 [CBK267259] | 164.391
29 | COc1ccc2cc(Cn3nc(C(=O)O)c4ccccc4c3=O)c(Cl)nc2c1 [CBK295354] | 152.547
52 | O=C(Nc1cccc(-c2nc3ncccc3o2)c1)c1cccnc1Cl [CBK058695] | 124.1

Later entries

Row | SMILES | % of control remaining [%]
55 | Cc1cccc(OCC2CCCN(C(=O)Cn3cc(C)cn3)C2)c1 (stereo not shown) [CBK281531] | 125.494
56 | CCCCOC(=O)CCn1c(=S)oc2ccccc21 [CBK019181] | 156.179
57 | Cc1ccc(-c2csc3ncnc(SCc4nc5ccccc5[nH]4)c23)cc1 [CBK267590] | 139.842
58 | O=C(NC(c1ccc(Cl)cc1)c1cnccn1)C1CCN(Cc2ccc(Oc3ccccc3)cc2)CC1 (stereo not shown) [CBK148023] | 69.3943
59 | O=C(Cc1ccc(-c2ccccc2)cc1)NCc1nnc(-c2cccs2)o1 [CBK286295] | 114.581
60 | COc1ccc(/C=N/NC(=O)Cn2nnnc2N)cc1 [CBK262122] | 118.366
61 | COc1cc(NC(=O)NC(=O)C2CCN(C(C)=O)CC2)cc(OC)c1OC [CBK034831] | 104.939
62 | CCOCCCNC(=O)c1cnn2c(C)c(Cc3cccc(C#N)c3)c(C)nc12 [CBK162081] | 96.9656
63 | CC(=O)Nc1cccc(-c2ccc(Nc3cccc(N(C)C)c3)nc2)c1 [CBK036829] | 177.624
64 | COc1cccc(C(=O)N2CCN(C(=O)Nc3ccsc3)CC2)c1 [CBK154782] | 105.132
65 | COc1ccc(OC)c(NC(=O)CSc2nnc(-c3ccc(N)cc3)n2C)c1 [CBK265872] | 125.683
66 | COc1cc([N+](=O)[O-])cc(CN2CCN(CCO)CC2)c1O [CBK261851] | 113.229
67 | CCN(CC)C(=O)c1c(NS(=O)(=O)c2ccc(C)cc2)sc2c1CCCC2 [CBK028627] | 99.1287
68 | O=C(OCc1ccc(Cl)cc1)c1ccc2c(c1)C(=O)N(c1cccc([N+](=O)[O-])c1)C2=O [CBK265188] | 108.646
69 | Cc1cc(F)c(S(=O)(=O)NCCN2CCOCC2)cc1NC(=O)c1ccc(Br)o1 [CBK059091C] | 128.446
70 | CC(C)N1CCCC2(CCN(C(=O)Cc3c[nH]c(=O)n(C)c3=O)C2)C1=O (stereo not shown) [CBK307115] | 108.503
71 | Cc1ccc(CNC(=O)NCCc2cccs2)cc1 [CBK044960] | 87.0795
72 | Cc1noc(NS(=O)(=O)c2ccc(N/C=C\C(=O)c3cccnc3)cc2)c1C [CBK264285] | 11.6311
73 | Nc1nnc(-c2ccc(Cl)cc2)[nH]1 [CBK025436] | 118.025
74 | COc1cccc(NC(=O)O[C@@H]2CC[C@]3(C)C(CC[C@H]4OC(=O)C[C@H]43)[C@]2(C)CO)c1 (stereo partly shown) [CBK289576] | 141.244
75 | O=C(CN1C2CCC1CC(O)(c1ccco1)C2)N1CCCCC1 (stereo not shown) [CBK284093] | 131.407
76 | CCOC(=O)CNS(=O)(=O)c1ccc(F)cc1 [CBK034442] | 90.3527
77 | CCc1c(C(=O)NCc2cccnc2-n2cncn2)cnn1-c1ccc(OC)nn1 [CBK298309] | 132.013
78 | COc1ccnc(N2CCN(C(=O)C3(C#N)CCCCC3)CC2)n1 [CBK305739] | 137.857
79 | CCSc1c(C)cnc2c1c(=O)n(C)c(=O)n2C [CBK287748] | 97.2706
